Data on four substances can be found in PMC5928194.

Sequences of proteins named here, by UniProt entry; tags and fusion partners are left off. A change or cut given only in a name is not applied to a line headed by its entry.
UniProt Q9Y530: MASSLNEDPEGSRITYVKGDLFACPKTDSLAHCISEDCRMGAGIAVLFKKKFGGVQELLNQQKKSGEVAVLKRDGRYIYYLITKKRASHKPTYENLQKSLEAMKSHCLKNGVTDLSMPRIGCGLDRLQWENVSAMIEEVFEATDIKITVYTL
UniProt P09874: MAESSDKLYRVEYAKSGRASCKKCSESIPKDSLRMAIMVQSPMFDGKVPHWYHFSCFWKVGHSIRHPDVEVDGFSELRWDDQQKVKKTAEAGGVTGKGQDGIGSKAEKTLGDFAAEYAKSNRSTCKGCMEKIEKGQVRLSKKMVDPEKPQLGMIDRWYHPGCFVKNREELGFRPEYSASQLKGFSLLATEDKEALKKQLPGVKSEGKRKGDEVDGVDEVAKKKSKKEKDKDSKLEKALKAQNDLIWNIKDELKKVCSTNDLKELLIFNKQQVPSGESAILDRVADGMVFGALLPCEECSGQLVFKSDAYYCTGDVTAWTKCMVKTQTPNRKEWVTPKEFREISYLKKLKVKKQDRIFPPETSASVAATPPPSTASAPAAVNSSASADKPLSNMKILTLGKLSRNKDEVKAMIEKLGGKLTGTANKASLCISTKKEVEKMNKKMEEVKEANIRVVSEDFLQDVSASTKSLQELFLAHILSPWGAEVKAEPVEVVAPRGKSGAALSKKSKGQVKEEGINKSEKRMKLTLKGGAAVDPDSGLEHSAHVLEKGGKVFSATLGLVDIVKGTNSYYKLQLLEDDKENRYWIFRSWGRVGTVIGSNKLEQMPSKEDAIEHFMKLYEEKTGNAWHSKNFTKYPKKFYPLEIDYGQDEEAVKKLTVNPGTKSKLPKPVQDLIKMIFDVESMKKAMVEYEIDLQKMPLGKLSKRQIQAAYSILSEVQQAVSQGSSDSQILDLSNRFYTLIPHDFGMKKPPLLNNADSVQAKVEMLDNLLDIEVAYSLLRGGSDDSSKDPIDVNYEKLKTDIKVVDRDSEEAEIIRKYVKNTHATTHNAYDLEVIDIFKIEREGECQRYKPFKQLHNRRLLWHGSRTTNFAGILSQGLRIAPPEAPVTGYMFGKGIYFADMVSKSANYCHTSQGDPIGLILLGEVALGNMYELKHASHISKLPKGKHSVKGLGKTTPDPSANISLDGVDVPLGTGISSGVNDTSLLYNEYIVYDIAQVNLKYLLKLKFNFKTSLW
UniProt Q86WJ1: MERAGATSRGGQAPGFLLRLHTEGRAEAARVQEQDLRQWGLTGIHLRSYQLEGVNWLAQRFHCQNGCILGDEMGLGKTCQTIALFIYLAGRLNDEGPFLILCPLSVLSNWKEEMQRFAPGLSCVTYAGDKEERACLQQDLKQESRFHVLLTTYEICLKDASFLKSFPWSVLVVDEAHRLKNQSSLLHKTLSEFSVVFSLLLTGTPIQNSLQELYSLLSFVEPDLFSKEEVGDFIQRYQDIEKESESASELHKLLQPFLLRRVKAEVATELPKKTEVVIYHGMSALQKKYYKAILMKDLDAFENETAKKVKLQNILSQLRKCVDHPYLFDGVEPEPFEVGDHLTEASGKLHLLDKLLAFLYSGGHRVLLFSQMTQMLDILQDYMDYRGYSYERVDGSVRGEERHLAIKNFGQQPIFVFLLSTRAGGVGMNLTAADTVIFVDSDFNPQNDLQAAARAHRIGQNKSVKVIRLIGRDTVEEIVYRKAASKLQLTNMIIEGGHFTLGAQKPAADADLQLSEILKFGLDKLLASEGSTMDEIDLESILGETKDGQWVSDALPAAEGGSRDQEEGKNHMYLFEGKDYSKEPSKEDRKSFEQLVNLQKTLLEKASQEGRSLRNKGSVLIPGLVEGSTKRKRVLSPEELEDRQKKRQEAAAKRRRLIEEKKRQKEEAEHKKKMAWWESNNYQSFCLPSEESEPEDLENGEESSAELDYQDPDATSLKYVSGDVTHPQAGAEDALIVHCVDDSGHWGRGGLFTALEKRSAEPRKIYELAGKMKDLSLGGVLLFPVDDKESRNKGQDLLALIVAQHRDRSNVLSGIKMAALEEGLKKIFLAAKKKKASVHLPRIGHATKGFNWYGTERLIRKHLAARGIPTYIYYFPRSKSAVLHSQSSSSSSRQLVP
UniProt Q08945: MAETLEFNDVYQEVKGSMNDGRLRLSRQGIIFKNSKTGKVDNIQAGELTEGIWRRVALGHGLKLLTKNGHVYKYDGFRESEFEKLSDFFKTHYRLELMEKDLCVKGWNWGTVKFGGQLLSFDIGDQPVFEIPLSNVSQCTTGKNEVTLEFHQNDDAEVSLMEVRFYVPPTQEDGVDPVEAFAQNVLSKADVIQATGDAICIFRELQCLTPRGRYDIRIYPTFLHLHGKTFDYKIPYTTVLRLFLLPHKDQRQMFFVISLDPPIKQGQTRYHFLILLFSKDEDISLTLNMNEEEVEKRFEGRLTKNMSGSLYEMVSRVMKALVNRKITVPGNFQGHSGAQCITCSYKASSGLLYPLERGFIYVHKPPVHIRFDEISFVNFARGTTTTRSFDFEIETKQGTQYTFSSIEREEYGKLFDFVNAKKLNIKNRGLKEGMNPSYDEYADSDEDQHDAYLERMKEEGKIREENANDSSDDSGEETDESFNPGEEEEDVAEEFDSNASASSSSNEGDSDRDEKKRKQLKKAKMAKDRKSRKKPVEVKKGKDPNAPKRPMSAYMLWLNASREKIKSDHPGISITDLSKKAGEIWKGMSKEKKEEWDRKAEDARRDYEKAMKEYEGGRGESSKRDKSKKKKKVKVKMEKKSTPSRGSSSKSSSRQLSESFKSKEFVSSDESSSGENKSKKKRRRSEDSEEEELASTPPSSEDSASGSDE
UniProt P18887: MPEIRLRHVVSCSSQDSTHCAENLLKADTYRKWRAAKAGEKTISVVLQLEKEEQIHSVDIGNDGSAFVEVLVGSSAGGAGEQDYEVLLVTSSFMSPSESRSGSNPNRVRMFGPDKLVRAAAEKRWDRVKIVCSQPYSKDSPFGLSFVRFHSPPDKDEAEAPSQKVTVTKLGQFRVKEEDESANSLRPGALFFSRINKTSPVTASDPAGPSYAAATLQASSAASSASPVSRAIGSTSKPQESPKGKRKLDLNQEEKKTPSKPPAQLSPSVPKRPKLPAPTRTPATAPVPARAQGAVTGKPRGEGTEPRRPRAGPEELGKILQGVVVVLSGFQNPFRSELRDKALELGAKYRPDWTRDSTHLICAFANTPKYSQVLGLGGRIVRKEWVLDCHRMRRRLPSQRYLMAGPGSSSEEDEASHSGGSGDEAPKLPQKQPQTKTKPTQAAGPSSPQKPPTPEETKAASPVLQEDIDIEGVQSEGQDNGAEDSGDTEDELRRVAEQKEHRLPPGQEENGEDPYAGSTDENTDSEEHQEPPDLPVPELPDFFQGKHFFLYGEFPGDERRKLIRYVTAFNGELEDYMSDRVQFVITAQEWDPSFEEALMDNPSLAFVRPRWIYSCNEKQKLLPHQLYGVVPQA

These are yes or no findings as the source states them, for the method shown. In cells and extracts the contact can be indirect. Some binding calls cover weakened binding; strength is not graded here.

Assay [1] has as its target FLAG-TARG1 wildtype (human) (UniProt Q9Y530). Description: co-IP; FLAG-TARG1 transiently expressed in HEK293 or HEK293T; TAP lysis buffer with 10 µM olaparib; anti-FLAG M2 beads, 4 °C; endogenous partners detected by Western blot. (In western blotting, separated proteins are transferred to a membrane and probed.)
Assay [2] concerns the target FLAG-TARG1-G123E (human) (UniProt Q9Y530). Nature of the assay: co-IP; FLAG-TARG1 (wildtype or G123E) transiently expressed in HEK293; TAP lysis buffer without olaparib (lysis-induced PARylation); anti-FLAG M2 beads, 4 °C; endogenous partners detected by Western blot.

Regarding ARTD1 (from UniProt P09874 1-1014), the binding entry in assay [1] is “binds”.

As for CHD1L (from UniProt Q86WJ1 1-897), in assay [2], the binding result is “no binding”.

SSRP1 (from UniProt Q08945 1-709): the binding entry in assay [2] is listed as “no binding”. The same measure, in the same setting: next, XRCC1 (from UniProt P18887 1-633): “no binding”.
